One assay addresses GST-p38α (UniProt Q16539). Nature of the assay: pull-down; lysates of HEK293T cells transfected with HA-tagged PIASs for 48 h incubated with purified GST-p38α overnight at 4 °C, immunoblotting; only the target purified. On the technique in general: Immunoblotting shows a protein as a band on a membrane.
Assay [1] has as its target p38α (endogenous) (human (endogenous in HGC27)) (UniProt Q16539). Briefly: co-IP; endogenous proteins in HGC27 cells; which partner was precipitated is not told.

The chains behind the UniProt entries cited, without tags or fusion partners. Where a name states a change or a piece, a line headed by the entry shows the natural chain unless it says otherwise. A line that says so, or that is headed by a name, gives the form on record, which may keep a tag or linker.
UniProt Q16539: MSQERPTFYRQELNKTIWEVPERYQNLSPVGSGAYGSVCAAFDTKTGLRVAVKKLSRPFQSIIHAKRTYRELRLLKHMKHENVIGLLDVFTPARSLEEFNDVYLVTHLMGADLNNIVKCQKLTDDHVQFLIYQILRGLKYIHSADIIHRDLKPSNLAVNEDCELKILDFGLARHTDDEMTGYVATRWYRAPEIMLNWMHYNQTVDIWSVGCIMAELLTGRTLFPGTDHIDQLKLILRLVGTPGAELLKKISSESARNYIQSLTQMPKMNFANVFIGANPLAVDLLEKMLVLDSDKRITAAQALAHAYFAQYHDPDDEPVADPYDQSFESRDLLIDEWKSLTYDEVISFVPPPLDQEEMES
PIASxα (endogenous) (O75928-2, form named): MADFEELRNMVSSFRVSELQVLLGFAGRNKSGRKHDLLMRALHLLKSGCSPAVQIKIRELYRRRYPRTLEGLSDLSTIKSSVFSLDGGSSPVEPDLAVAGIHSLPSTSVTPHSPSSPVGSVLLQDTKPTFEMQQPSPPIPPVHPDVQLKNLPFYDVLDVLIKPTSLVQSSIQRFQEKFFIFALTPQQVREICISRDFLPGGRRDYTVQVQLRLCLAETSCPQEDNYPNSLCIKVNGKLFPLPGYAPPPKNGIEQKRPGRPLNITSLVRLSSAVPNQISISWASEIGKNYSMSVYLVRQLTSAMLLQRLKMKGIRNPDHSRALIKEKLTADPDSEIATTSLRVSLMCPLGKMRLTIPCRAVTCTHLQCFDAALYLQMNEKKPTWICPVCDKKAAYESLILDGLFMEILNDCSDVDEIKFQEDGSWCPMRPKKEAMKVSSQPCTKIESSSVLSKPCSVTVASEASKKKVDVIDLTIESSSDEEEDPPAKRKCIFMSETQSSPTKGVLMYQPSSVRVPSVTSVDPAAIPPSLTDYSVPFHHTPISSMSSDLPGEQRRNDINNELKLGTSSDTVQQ

These are yes or no findings as the source states them, for the method shown. Binding seen in cells or lysates may run through a third protein. Some entries that bind do so weakly or less than the wild type.

With HA-PIASxα (from UniProt O75928-2 1-572), the binding entry in the assay with GST-p38α is recorded as “binds”.

As to “PIASxα (endogenous) (from UniProt O75928-2 1-572)”, in assay [1], the binding result is recorded as “binds”.

For the origin of these results see article PMC8536665.
